This passage reports binding results from article PMC11440251.

Protein sequences, listed by entry. Tags and fused reporters are not part of them.
UniProt O75691: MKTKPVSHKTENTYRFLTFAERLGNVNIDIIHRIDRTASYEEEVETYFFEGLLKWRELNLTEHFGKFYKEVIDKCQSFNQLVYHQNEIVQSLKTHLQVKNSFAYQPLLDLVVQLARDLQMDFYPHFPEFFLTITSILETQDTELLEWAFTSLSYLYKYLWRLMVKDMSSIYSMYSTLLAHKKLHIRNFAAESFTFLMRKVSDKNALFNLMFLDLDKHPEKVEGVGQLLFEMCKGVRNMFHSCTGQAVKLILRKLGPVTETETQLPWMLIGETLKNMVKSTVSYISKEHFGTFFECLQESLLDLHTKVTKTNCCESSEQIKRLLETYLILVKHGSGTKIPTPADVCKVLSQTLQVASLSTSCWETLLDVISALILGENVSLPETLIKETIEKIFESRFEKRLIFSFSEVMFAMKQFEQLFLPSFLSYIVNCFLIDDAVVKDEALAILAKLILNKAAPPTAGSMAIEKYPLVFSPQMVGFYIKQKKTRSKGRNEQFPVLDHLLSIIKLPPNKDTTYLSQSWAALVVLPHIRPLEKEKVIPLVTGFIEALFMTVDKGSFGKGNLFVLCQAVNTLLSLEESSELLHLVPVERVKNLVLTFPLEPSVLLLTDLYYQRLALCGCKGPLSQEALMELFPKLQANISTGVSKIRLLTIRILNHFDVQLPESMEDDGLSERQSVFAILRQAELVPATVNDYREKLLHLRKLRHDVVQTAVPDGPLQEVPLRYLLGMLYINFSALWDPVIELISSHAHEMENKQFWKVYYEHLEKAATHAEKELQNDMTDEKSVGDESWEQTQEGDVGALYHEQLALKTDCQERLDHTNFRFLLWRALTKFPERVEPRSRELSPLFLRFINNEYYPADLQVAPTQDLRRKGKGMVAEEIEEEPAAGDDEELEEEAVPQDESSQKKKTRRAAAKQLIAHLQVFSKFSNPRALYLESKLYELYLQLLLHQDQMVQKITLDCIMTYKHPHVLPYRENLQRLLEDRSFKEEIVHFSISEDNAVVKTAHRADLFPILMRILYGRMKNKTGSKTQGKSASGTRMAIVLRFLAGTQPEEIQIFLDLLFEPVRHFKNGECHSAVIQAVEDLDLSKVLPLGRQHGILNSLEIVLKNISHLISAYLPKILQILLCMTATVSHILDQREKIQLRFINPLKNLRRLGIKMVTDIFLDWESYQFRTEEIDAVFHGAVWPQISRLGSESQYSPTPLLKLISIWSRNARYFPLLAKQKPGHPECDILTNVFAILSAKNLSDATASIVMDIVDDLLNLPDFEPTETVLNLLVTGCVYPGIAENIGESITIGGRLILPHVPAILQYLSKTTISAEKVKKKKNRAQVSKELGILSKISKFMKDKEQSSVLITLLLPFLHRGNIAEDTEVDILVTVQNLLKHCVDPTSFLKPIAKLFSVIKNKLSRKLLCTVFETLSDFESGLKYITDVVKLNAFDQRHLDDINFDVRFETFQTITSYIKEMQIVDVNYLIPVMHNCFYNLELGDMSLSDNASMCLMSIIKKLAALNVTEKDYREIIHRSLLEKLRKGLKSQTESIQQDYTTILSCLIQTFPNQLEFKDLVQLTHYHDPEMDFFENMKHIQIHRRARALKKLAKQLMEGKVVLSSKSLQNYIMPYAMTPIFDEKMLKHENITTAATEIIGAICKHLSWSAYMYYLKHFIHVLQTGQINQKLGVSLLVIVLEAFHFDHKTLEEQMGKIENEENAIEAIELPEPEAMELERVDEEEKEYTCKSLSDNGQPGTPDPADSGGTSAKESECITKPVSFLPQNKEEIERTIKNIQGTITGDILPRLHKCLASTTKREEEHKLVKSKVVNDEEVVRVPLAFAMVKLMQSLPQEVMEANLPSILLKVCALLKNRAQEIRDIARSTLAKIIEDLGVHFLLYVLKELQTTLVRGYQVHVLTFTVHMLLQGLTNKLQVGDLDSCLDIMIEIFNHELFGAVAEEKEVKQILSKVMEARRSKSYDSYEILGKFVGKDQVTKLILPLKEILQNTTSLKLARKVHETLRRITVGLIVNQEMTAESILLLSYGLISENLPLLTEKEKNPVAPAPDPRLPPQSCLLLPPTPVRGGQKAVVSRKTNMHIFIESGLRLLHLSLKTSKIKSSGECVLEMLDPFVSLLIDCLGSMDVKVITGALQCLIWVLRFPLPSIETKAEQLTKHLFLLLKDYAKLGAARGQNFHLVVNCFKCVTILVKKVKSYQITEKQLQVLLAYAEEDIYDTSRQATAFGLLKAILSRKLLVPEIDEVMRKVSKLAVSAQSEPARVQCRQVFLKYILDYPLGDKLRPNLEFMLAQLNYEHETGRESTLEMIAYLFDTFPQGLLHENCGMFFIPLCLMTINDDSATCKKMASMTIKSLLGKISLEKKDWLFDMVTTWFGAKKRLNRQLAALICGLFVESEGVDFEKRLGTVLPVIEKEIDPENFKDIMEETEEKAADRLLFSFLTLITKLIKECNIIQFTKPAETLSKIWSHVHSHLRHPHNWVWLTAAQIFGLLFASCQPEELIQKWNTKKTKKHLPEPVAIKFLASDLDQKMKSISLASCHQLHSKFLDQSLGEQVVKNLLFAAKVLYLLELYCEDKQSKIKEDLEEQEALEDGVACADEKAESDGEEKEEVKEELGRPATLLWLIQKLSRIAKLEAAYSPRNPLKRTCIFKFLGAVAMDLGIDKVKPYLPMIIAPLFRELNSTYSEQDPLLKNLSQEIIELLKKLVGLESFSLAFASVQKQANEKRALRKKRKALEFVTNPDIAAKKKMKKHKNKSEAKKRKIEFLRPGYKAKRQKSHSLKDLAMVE

Assay [1] has as its target T1, RB1 (human (endogenous in MGC803)) (UniProt P06400).
T1 sequence: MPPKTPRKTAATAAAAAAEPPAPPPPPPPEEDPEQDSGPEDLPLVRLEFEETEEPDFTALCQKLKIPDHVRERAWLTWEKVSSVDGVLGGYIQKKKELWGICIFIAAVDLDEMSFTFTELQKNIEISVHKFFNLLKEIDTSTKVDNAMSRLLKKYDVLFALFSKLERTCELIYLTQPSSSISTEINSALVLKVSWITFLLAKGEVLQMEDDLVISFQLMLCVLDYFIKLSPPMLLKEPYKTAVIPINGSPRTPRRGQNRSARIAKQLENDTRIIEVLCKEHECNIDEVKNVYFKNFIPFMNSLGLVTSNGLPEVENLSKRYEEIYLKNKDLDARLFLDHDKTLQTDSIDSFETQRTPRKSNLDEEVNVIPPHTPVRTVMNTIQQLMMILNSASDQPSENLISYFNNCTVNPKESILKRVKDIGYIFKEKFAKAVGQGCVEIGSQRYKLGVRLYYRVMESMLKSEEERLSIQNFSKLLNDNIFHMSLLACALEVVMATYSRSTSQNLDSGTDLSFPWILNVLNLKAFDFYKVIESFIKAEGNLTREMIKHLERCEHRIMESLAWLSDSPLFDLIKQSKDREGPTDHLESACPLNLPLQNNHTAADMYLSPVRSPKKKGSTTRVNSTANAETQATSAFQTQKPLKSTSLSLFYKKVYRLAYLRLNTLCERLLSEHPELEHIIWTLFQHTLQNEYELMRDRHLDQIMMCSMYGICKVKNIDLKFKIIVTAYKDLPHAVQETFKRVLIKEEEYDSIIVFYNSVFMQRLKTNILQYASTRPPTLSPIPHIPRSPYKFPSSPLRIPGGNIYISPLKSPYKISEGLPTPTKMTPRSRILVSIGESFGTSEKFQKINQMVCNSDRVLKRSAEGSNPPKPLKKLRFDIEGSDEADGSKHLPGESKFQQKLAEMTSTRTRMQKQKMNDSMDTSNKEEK
Description: affinity purification with mass spectrometry; RB1 antibody added to MGC803 P16-WT and P16-KO cell lysates for IP; rabbit IgG as negative control; precipitated proteins run briefly on SDS-PAGE, LC-MS.

Assay [2] addresses T1, RB1 (human (endogenous in MGC803)). The assay is described as above. This is another data set of the same source.

Like-named read-outs stand apart in the source and are kept apart here. No constants are given. Whether binding was seen depends on the method and setting. In cells and extracts the contact can be indirect. Here binding means that the protein was enriched with, or labelled near, the bait; the list need not be complete.

As to UTP20/1A6 (from UniProt O75691 1-2785), the binding entry in assay [1] was “binds”.

B1: UTP14A (enzyme, UniProt Q9BVJ6 1-771)
chain: MTANRLAESLLALSQQEELADLPKDYLLSESEDEGDNDGERKHQKLLEAISSLDGKNRRKLAERSEASLKVSEFNVSSEGSGEKLVLADLLEPVKTSSSLATVKKQLSRVKSKKTVELPLNKEEIERIHREVAFNKTAQVLSKWDPVVLKNRQAEQLVFPLEKEEPAIAPIEHVLSGWKARTPLEQEIFNLLHKNKQPVTDPLLTPVEKASLRAMSLEEAKMRRAELQRARALQSYYEAKARREKKIKSKKYHKVVKKGKAKKALKEFEQLRKVNPAAALEELEKIEKARMMERMSLKHQNSGKWAKSKAIMAKYDLEARQAMQEQLSKNKELTQKLQVASESEEEEGGTEDVEELLVPDVVNEVQMNADGPNPWMLRSCTSDTKEAATQEDPEQLPELEAHGVSESEGEERPVAEEEILLREFEERRSLRKRSELSQDAEPAGSQETKDSGSQEVLSELRVLSQKLKENHQSRKQKASSEGTIPQVQREEPAPEEEEPLLLQRPERVQTLEELEELGKEECFQNKELPRPVLEGQQSERTPNNRPDAPKEKKKKEQMIDLQNLLTTQSPSVKSLAVPTIEELEDEEERNHRQMIKEAFAGDDVIRDFLKEKREAVEASKPKDVDLTLPGWGEWGGVGLKPSAKKRRRFLIKAPEGPPRKDKNLPNVIINEKRNIHAAAHQVRVLPYPFTHHWQFERTIQTPIGSTWNTQRAFQKLTTPKVVTKPGHIINPIKAEDVGYRSSSRSDLSVIQRNPKRITTRHKKQLKKCSVD
On to B1, for which the binding entry in assay [2] was “binds”.
